{"source": "patent US20230285402A1", "about": "“Compositions and Methods of Modulating Short-Chain Dehydrogenase Activity” (BOARD OF REGENTS OF THE UNIVERSITY OF TEXAS SYSTEM, priority 2013, published 2023)", "system": "C57BL/6J female mice", "assay": "Survival of mice after whole body irradiation, SW033291 5 mg/kg IP", "assay_type": "in vivo, mouse", "note": "This continues a long series; more values of the same kind are listed elsewhere."}
{"compound": "CCCC[S+]([O-])c1sc2nc(-c3cccs3)cc(-c3ccccc3)c2c1N", "note": "(centres unmarked) [SW033291, 2-(butylsulfinyl)-4-phenyl-6-(thiophen-2-yl)thieno[2,3-b]pyridin-3-amine]", "values": [{"measurement": "number of mice surviving", "setting": "Day 0, 7 Gy, daily for 7 doses", "value": 3}, {"measurement": "number of mice surviving", "setting": "Day 0, 11 Gy, 1 dose/daily for 7 days (Table 7)", "value": 3}, {"measurement": "number of mice surviving", "setting": "Day 0, 11 Gy, 1 dose/daily, continuous every day", "value": 3}, {"measurement": "number of mice surviving", "setting": "Day 0, 11 Gy, 7 days, 2 dose daily", "value": 3}, {"measurement": "number of mice surviving", "setting": "Day 0, 11 Gy, daily for 7 doses (Table 6)", "value": 3}, {"measurement": "number of mice surviving", "setting": "Day 5, 7 Gy, daily for 7 doses", "value": 3}, {"measurement": "number of mice surviving", "setting": "Day 5, 11 Gy, 1 dose/daily for 7 days (Table 7)", "value": 3}, {"measurement": "number of mice surviving", "setting": "Day 5, 11 Gy, 1 dose/daily, continuous every day", "value": 3}, {"measurement": "number of mice surviving", "setting": "Day 5, 11 Gy, 7 days, 2 dose daily", "value": 3}, {"measurement": "number of mice surviving", "setting": "Day 5, 11 Gy, daily for 7 doses (Table 6)", "value": 3}, {"measurement": "number of mice surviving", "setting": "Day 6, 7 Gy, daily for 7 doses", "value": 3}, {"measurement": "number of mice surviving", "setting": "Day 6, 11 Gy, 1 dose/daily for 7 days (Table 7)", "value": 3}, {"measurement": "number of mice surviving", "setting": "Day 6, 11 Gy, 1 dose/daily, continuous every day", "value": 3}, {"measurement": "number of mice surviving", "setting": "Day 6, 11 Gy, 7 days, 2 dose daily", "value": 3}, {"measurement": "number of mice surviving", "setting": "Day 6, 11 Gy, daily for 7 doses (Table 6)", "value": 3}, {"measurement": "number of mice surviving", "setting": "Day 7, 7 Gy, daily for 7 doses", "value": 3}, {"measurement": "number of mice surviving", "setting": "Day 7, 11 Gy, 1 dose/daily for 7 days (Table 7)", "value": 3}, {"measurement": "number of mice surviving", "setting": "Day 7, 11 Gy, 1 dose/daily, continuous every day", "value": 3}, {"measurement": "number of mice surviving", "setting": "Day 7, 11 Gy, 7 days, 2 dose daily", "value": 3}, {"measurement": "number of mice surviving", "setting": "Day 7, 11 Gy, daily for 7 doses (Table 6)", "value": 3}, {"measurement": "number of mice surviving", "setting": "Day 8, 7 Gy, daily for 7 doses", "value": 3}, {"measurement": "number of mice surviving", "setting": "Day 8, 11 Gy, 1 dose/daily for 7 days (Table 7)", "value": 2}, {"measurement": "number of mice surviving", "setting": "Day 8, 11 Gy, 1 dose/daily, continuous every day", "value": 3}, {"measurement": "number of mice surviving", "setting": "Day 8, 11 Gy, 7 days, 2 dose daily", "value": 3}, {"measurement": "number of mice surviving", "setting": "Day 8, 11 Gy, daily for 7 doses (Table 6)", "value": 3}, {"measurement": "number of mice surviving", "setting": "Day 9, 7 Gy, daily for 7 doses", "value": 3}, {"measurement": "number of mice surviving", "setting": "Day 9, 11 Gy, 1 dose/daily for 7 days (Table 7)", "value": 1}, {"measurement": "number of mice surviving", "setting": "Day 9, 11 Gy, 1 dose/daily, continuous every day", "value": 2}, {"measurement": "number of mice surviving", "setting": "Day 9, 11 Gy, 7 days, 2 dose daily", "value": 2}, {"measurement": "number of mice surviving", "setting": "Day 9, 11 Gy, daily for 7 doses (Table 6)", "value": 2}, {"measurement": "number of mice surviving", "setting": "Day 10, 7 Gy, daily for 7 doses", "value": 3}, {"measurement": "number of mice surviving", "setting": "Day 10, 11 Gy, 1 dose/daily for 7 days (Table 7)", "value": 0}, {"measurement": "number of mice surviving", "setting": "Day 10, 11 Gy, 1 dose/daily, continuous every day", "value": 0}, {"measurement": "number of mice surviving", "setting": "Day 10, 11 Gy, 7 days, 2 dose daily", "value": 0}, {"measurement": "number of mice surviving", "setting": "Day 10, 11 Gy, daily for 7 doses (Table 6)", "value": 0}, {"measurement": "number of mice surviving", "setting": "Day 11, 7 Gy, daily for 7 doses", "value": 3}, {"measurement": "number of mice surviving", "setting": "Day 11, 9 Gy, daily for 7 doses", "value": 3}, {"measurement": "number of mice surviving", "setting": "Day 12, 7 Gy, daily for 7 doses", "value": 3}, {"measurement": "number of mice surviving", "setting": "Day 13, 7 Gy, daily for 7 doses", "value": 3}, {"measurement": "number of mice surviving", "setting": "Day 14, 7 Gy, daily for 7 doses", "value": 3}, {"measurement": "number of mice surviving", "setting": "Day 15, 7 Gy, daily for 7 doses", "value": 3}]}
